# Patent EP0362382A1, “METHOD OF STERILIZING PLANT POLLEN” (VSESOJUZNY NAUCHNO-ISSLEDOVATELSKY INST. SELSKOKHOZYAISTV. …, priority 1988, dated 1989)
# Test system: Sonnenblume
# Test: Field test of chemical sterilisation of sunflower pollen
# Type: in vivo
# Conditions: for Masse von 1000 Achünen in g / Ölgehalt in %: V. Periode der Organogenese
# Source text: Die gametozide Aktivitat der erfindungsgemäßen Sterilisationsmittel war im Feldversuch in verschiedenen bodenklimatischen Zonen mit Teilstücken von 10 m^2 Größe in drei- bis viermaliger Wiederholung festgestellt. Jedes Sterilisationsmittel wurde mindenstens 5 Jahre lang geprüft.
# Die Entwicklung der Perioden der Organogenese wird zytologisch überwacht. Die Behandlung von Pflanzen mit dem Sterilisationsmittel erfolgt am Anfang der fünften Periode der Organogenese nach Kupermann.
# Zur Kontrolle der chemischen Sterilisation des Sonnenblumenpollens werden für jede Verbindung 45 behandelte Pflanzen jeder Wiederholung benutzt, wobei 15 Pflanzen von denen zwecks Selbsbestäubung isoliert werden, Blütenkorbchen anderer 15 Pflanzen mit einem Pollengemisch, gesammelt von 20 bis 25 behandelten isolierten Körbchen, bestäubt werden, und 15 Pflanzen für freie Bestäubung gelassen werden, damit das Ansetzen von Achänen mit dem Pollen der väterlichen Form kontrolliert werden kann.
# Man beurteilt die Pollensterilität von Pflanzen der Sonnenblume nach der Pollenfertilität und -keimfähigkeit, nach den morphologischen Besonderheiten von Spermien und nach der Fähigkeit von Achänen zum Ansetzen bei der Bestäubung der behandelten isolierten Pflanzen mit dem Pollen der unbehandelten väterlichen Form. Die Lebensfähigkeit der Eizelle wird nach der Samenbildung von behandelten Pflanzen bei freier Bestäubung mit der väterlichen Form bestimmt.
# Man behandelt die Sonnenblume Sorte BHNNMK 8931 (WNIIMK 8931) in der V. Periode der Organogenese mit 0,5%iger wäßriger Emulsion von 4-Karboxybutyldezylsulfid, mit 1%iger Emulsion der δ, δ' -Sulfonyldivaleriansäure, 2%iger Emulsion von Bis(2-äthylhexyläther) der δ, δ' -Thiodivaleriansäure; die Sonnenblume der Linie BK-373 (WK-373) mit 2%iger Emulsion von Bis(2-äthylhexyläther) der δ δ' --Thiodivaleriansäure, mit 0,2%iger Emulsion von Bis(di--n-butyläther) der δ, δ' -Thiodivaleriansäure; die Sonnenblume der Linie BK=364 (WK-365) mit 2%iger wäßriger Emulsion von Bis(2-äthylhexyläther) der δ, δ' -Thirodivaleriansäure, mit 0,2%iger Emulsion von Bis(di-n-butyläther) der δ, δ' -Thiodivaleriansäure. Die Emulsion enthält 0,1 Masse% Kalziumalkylbenzolsulfonat mit 12 bis 14 Kohlenstoffatomen und 0,01 Masse% Dimethylsulfoxid. Als Kontrolle dienen Pflanzen, behandelt mit einem Verdünner ohne Sterilisationsmittel. Die Prüfergebnisse sind in der Tabelle 17 angegeben. […] Periode der Organogenese erhalten.
# [1] = Sorte ВНИИМК 8931 (WNIIMK 8931), Verbrauch je ha in kg/600 l: Beispiel 82: 3,0, 83: 6,0, 84: 12,0
# [2] = Linie BK-373 (WK-373), Verbrauch je ha in kg/600 l: Beispiel 85: 12,0, 86: 1,2
# [3] = Sorte ВНИИМК 8931 (WNIIMK 8931), Beispiel 75: 0,5%ige, 76: 1%ige, 77: 2%ige Emulsion
# [4] = Linie BK-364 (WK-364), Beispiel 80: 2%ige, 81: 0,2%ige Emulsion
# [5] = Linie BK-373 (WK-373), Beispiel 78: 2%ige, 79: 0,2%ige Emulsion
# [6] = Linie BK-364 (WK-364), Verbrauch je ha in kg/600 l: Beispiel 87: 12,0, 88: 1,2
structure (smiles),measurement,setting,value
"O=C(O)CCCCS(=O)(=O)CCCCC(=O)O [Beispiel 83, δ, δ' -Sulfonyldivaleriansäure]",Keimfähigkeit in %,[1],"100,0%"
"CCCCOC(=O)CCCCSCCCCC(=O)OCCCC [Beispiel 86, Bis(di--n-butyläther) der δ, δ' -Thiodivaleriansäure]",Keimfähigkeit in %,[2],"100,0%"
"CCCCC(CC)COC(=O)CCCCSCCCCC(=O)OCC(CC)CCCC (stereo not drawn) [Beispiel 84, Bis(2-äthylhexyläther) der δ, δ' -Thiodivaleriansäure]",Keimfähigkeit in %,[1],"100,0%"
"O=C(O)CCCCS(=O)(=O)CCCCC(=O)O [Beispiel 76, δ, δ' -Sulfonyldivaleriansäure]",Masse von 1000 Achünen in g,[3],"85,5 g"
same,Ölgehalt in %,[3],"53,6%"
"CCCCCCCCCCSCCCCC(=O)O [Beispiel 82, 4-Karboxybutyldezylsulfid]",Keimfähigkeit in %,[1],"100,0%"
"CCCCC(CC)COC(=O)CCCCSCCCCC(=O)OCC(CC)CCCC (stereo not drawn) [Beispiel 85, Bis(2-äthylhexyläther) der δ δ' --Thiodivaleriansäure]",Keimfähigkeit in %,[2],"100,0%"
"CCCCOC(=O)CCCCSCCCCC(=O)OCCCC [Beispiel 81, Bis(di-n-butyläther) der δ, δ' -Thiodivaleriansäure]",Masse von 1000 Achünen in g,[4],"87,1 g"
same,Ölgehalt in %,[4],"44,5%"
"CCCCC(CC)COC(=O)CCCCSCCCCC(=O)OCC(CC)CCCC (stereo not drawn) [Beispiel 78, Bis(2-äthylhexyläther) der δ δ' --Thiodivaleriansäure]",Masse von 1000 Achünen in g,[5],"54,5 g"
same,Ölgehalt in %,[5],"48,1%"
"CCCCOC(=O)CCCCSCCCCC(=O)OCCCC [Beispiel 88, Bis(di-n-butyläther) der δ, δ' -Thiodivaleriansäure]",Keimfähigkeit in %,[6],"100,0%"
"CCCCC(CC)COC(=O)CCCCSCCCCC(=O)OCC(CC)CCCC (stereo not drawn) [Beispiel 80, Bis(2-äthylhexyläther) der δ, δ' -Thirodivaleriansäure]",Masse von 1000 Achünen in g,[4],"87,0 g"
same,Ölgehalt in %,[4],"45,5%"
"CCCCC(CC)COC(=O)CCCCSCCCCC(=O)OCC(CC)CCCC (stereo not drawn) [Beispiel 87, Bis(2-äthylhexyläther) der δ, δ' -Thirodivaleriansäure]",Keimfähigkeit in %,[6],"100,0%"
"CCCCC(CC)COC(=O)CCCCSCCCCC(=O)OCC(CC)CCCC (stereo not drawn) [Beispiel 77, Bis(2-äthylhexyläther) der δ, δ' -Thiodivaleriansäure]",Masse von 1000 Achünen in g,[3],"91,9 g"
same,Ölgehalt in %,[3],"53,9%"
"CCCCCCCCCCSCCCCC(=O)O [Beispiel 75, 4-Karboxybutyldezylsulfid]",Masse von 1000 Achünen in g,[3],"78,0 g"
same,Ölgehalt in %,[3],"52,5%"
"CCCCOC(=O)CCCCSCCCCC(=O)OCCCC [Beispiel 79, Bis(di--n-butyläther) der δ, δ' -Thiodivaleriansäure]",Masse von 1000 Achünen in g,[5],"57,2 g"
same,Ölgehalt in %,[5],"49,2%"
